Reference: the supplement of paper PMC10849652
This is one part of the list.

Protein sequences, listed by entry. Tags and fused reporters are not part of them. Lines headed by an entry give the natural chain unless they say otherwise; changes in a name come on top.
UniProt P11172: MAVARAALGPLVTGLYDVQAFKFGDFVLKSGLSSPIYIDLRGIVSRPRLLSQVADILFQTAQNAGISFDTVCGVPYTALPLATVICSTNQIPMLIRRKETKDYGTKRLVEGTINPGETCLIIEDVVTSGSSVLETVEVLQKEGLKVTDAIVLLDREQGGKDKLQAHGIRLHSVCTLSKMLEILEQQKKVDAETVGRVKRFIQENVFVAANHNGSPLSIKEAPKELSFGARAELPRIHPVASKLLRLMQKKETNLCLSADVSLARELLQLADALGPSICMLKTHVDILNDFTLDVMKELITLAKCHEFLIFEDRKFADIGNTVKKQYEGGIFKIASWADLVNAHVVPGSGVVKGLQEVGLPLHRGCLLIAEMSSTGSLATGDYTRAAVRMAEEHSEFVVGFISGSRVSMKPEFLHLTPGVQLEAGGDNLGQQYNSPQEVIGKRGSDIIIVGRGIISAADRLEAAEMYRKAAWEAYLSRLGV
UniProt O94888: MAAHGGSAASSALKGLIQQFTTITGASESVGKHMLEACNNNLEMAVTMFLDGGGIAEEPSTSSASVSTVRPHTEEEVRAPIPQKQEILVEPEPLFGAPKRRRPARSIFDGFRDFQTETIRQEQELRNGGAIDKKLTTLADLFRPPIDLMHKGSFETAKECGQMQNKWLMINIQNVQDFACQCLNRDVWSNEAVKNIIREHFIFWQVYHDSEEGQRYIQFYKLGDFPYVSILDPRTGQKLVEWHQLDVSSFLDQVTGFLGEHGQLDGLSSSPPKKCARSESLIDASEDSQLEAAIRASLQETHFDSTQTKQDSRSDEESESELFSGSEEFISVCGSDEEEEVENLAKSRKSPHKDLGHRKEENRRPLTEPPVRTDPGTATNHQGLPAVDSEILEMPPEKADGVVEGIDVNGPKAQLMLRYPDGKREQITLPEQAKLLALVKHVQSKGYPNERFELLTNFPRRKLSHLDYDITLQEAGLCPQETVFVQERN
UniProt Q16880: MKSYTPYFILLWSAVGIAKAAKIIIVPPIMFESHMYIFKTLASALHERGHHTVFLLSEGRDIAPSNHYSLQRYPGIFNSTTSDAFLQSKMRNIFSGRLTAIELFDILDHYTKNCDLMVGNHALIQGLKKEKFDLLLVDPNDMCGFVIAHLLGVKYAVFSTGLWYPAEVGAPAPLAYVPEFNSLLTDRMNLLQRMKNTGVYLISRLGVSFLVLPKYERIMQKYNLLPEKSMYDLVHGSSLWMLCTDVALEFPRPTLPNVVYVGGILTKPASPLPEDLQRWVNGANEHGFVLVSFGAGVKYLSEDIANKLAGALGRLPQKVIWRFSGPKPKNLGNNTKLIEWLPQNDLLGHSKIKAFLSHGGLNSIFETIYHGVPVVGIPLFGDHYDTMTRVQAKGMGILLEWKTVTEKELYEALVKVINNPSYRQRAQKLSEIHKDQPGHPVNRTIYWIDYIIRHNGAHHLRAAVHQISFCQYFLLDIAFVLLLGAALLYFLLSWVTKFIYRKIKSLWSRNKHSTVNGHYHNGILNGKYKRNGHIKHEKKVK
UniProt P55072, whole entry, looked up: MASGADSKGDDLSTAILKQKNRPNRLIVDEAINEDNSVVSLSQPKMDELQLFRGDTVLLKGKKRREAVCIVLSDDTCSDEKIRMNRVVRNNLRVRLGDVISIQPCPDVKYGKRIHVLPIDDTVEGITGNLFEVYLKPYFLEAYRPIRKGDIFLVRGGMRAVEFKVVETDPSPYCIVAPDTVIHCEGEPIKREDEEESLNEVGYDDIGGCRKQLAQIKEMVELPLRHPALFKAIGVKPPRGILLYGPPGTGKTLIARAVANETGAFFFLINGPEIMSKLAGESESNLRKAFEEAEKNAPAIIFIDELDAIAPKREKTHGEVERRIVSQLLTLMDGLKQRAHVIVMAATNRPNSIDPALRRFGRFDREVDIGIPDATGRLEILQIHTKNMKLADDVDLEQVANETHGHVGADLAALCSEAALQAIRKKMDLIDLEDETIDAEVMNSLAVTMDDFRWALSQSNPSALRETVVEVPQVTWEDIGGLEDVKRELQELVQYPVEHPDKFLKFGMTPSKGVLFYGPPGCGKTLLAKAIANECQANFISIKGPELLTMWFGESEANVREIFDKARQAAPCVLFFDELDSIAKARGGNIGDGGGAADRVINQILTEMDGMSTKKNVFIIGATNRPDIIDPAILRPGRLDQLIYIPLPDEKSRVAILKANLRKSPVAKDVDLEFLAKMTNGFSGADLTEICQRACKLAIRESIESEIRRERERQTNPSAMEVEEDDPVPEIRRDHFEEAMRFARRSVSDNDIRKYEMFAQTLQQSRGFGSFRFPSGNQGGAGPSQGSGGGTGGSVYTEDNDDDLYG
UniProt O94966: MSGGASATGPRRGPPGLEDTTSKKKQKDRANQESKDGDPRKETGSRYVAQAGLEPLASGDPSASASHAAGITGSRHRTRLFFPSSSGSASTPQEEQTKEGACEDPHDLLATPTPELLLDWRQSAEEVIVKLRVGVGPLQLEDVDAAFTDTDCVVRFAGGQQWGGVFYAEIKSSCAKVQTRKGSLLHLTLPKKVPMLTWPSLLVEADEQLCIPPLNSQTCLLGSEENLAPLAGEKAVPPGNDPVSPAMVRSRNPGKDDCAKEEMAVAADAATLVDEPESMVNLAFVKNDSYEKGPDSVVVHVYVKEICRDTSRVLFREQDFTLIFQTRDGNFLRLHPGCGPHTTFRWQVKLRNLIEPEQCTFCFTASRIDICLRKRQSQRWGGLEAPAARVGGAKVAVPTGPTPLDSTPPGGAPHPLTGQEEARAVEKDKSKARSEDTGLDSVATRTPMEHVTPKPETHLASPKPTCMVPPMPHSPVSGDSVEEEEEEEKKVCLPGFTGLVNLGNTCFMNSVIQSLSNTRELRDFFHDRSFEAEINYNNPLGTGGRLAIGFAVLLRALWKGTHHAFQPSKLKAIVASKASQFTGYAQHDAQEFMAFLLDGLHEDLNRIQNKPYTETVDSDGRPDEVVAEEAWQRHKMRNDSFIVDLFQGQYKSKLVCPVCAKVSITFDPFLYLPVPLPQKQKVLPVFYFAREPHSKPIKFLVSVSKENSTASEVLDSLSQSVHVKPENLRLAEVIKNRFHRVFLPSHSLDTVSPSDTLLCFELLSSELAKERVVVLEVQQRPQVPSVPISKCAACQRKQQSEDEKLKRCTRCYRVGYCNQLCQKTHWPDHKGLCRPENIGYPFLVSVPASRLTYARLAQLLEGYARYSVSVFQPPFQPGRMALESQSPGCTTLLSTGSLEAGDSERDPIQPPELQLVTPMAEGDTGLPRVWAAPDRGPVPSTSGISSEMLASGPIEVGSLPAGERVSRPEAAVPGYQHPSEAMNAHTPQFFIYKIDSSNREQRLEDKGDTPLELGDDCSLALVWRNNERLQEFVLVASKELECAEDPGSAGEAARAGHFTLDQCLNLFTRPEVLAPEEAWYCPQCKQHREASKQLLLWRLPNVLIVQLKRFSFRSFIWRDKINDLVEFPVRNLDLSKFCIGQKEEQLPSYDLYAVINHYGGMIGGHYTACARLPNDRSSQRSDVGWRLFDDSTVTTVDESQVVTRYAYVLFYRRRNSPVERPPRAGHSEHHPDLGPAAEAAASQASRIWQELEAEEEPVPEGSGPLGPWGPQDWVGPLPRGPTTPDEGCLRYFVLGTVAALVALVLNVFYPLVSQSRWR
UniProt Q8TED0: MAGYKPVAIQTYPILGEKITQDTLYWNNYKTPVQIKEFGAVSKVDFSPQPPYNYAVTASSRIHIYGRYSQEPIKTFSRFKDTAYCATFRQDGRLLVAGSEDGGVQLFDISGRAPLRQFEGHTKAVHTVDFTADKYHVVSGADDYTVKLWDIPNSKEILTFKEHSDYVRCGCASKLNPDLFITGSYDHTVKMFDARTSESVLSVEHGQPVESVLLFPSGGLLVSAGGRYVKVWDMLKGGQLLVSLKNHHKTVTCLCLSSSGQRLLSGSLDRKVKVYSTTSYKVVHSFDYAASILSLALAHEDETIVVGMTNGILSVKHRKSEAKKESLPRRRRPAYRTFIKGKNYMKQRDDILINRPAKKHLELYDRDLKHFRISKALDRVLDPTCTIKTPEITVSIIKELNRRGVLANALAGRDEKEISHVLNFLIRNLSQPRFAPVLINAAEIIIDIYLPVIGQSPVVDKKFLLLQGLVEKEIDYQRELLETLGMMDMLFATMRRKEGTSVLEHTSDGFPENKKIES
UniProt Q15386: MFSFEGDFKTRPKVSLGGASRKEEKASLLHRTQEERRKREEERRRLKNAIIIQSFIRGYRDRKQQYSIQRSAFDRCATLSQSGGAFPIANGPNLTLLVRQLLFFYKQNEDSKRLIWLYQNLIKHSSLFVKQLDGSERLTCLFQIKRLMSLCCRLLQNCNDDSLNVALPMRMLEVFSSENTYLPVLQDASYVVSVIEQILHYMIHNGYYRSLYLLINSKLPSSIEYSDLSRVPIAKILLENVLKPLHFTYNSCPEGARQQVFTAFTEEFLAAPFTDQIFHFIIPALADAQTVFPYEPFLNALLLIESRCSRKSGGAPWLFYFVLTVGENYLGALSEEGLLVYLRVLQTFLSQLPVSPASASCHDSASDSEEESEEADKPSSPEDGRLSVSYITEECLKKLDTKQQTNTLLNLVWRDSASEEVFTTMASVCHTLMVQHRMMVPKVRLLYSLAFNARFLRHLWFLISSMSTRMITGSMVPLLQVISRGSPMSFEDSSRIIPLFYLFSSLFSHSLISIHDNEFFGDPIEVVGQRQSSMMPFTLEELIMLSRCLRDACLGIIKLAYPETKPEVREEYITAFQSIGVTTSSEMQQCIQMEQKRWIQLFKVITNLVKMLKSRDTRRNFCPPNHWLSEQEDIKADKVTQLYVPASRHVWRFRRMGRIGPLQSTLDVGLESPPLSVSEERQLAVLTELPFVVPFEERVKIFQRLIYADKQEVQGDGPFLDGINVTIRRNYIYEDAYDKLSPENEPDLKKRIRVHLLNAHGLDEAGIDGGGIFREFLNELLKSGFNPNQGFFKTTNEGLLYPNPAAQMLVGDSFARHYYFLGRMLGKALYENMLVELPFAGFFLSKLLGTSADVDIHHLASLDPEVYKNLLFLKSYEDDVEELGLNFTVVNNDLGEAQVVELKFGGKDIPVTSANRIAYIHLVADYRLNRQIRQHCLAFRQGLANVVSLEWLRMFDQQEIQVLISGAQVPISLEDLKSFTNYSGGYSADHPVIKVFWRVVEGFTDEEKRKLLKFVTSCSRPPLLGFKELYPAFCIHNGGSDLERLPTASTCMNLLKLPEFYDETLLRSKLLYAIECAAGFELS
UniProt P14927: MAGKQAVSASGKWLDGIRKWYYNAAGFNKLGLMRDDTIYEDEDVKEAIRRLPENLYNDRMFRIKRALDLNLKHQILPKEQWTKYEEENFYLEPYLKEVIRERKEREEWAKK
UniProt Q9BZL1: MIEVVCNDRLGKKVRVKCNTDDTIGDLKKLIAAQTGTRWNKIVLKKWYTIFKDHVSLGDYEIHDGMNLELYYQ
UniProt O14949: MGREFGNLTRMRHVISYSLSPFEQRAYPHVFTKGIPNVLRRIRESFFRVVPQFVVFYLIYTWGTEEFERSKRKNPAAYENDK
UniProt Q9UHD9, whole entry, looked up: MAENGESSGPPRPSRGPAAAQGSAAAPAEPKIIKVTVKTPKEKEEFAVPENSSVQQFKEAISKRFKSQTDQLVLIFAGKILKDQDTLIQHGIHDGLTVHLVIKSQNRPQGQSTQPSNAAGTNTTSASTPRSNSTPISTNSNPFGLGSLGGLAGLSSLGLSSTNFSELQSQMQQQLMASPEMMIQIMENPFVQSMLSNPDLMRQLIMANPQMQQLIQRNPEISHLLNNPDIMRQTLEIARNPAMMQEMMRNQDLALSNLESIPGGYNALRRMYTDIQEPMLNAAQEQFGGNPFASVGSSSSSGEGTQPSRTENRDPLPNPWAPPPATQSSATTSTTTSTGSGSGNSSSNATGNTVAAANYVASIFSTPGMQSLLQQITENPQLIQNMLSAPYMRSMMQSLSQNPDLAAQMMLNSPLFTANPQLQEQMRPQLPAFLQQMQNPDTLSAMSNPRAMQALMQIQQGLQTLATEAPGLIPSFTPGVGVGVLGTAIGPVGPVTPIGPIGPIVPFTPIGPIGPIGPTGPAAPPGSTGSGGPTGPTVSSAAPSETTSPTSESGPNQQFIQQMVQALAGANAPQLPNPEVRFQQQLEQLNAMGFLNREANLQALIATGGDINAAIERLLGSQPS
UniProt P22695: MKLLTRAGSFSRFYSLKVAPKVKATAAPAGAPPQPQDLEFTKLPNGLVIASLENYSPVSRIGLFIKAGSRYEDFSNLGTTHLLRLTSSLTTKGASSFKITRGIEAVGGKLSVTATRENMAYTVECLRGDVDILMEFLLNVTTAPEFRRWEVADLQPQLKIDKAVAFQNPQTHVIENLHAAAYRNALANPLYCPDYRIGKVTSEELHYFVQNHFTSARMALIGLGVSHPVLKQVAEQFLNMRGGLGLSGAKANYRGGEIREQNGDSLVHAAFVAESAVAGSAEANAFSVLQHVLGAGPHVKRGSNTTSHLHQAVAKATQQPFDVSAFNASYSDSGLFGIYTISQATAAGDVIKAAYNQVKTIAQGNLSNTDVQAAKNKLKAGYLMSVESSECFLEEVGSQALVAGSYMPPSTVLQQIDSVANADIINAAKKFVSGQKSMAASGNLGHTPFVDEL

compound: CCn1c(C(=O)N(C2CC2)C2CC2)cc2c3c(ncn3C)c(Nc3cc(C)n(C)n3)nc21; assay: log2 fold change, soluble protein after heating vs DMSO (PISA); higher = thermal stabilisation; K562 cells, 10 uM, 30 min; active = over 0.2 and 3.5 SD of the protein, either way, in both replicates (recomputed)
Summary of the method: (§1)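 Aliquots of K562 cells (2×10^6 cells/mL) treated with 10 μM compound for 30 min were heated for 3 min over 48°C-58°C. After pooling and extraction in PBS with 0.5% NP-40 at 4°C, soluble protein from a 21,000xg, 90 min spin was quantified by TMTpro 16plex LC-MS/MS with channel sums equalised. Thermal stability is expressed against control samples, from duplicates, as a log2 fold change.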

log2 fold change, inactive:
UMPS (UniProt P11172) 0.011
UBXN7 (UniProt O94888) -0.029
USP6NL isoform 2 (UniProt Q92738) -0.017
UBQLN1 (UniProt Q9UMX0) -0.004
USP22 (UniProt Q9UPT9) -0.042
UGT8 (UniProt Q16880) 0.343
VAMP2 (UniProt P63027) 0.048
UXS1 isoform 2 (UniProt Q8NBZ7) -0.011
VCP (UniProt P55072) 0.018
USP19 isoform 6 (UniProt O94966) -0.044
UTP15 (UniProt Q8TED0) 0.023
UBL4A (UniProt P11441) 0.005
UBE3C (UniProt Q15386) -0.004
VAMP4 (UniProt O75379) 0.026
UQCC1 (UniProt Q9NVA1) 0.037
UCKL1 (UniProt Q9NWZ5) 0.016
UQCRB (UniProt P14927) 0.059
VARS (UniProt P26640) -0.029
UBL5 (UniProt Q9BZL1) -0.037
USP20 (UniProt Q9Y2K6) 0.016
USP30 (UniProt Q70CQ3) -0.181
UPRT (UniProt Q96BW1) 0.002
UVRAG (UniProt Q9P2Y5) 0.071
UFSP2 (UniProt Q9NUQ7) -0.057
UQCRQ (UniProt O14949) 0.02
UBQLN2 (UniProt Q9UHD9) 0.02
UQCRC2 (UniProt P22695) 0.01
UNC93B1 (UniProt Q9H1C4) -0.05
UBQLN3 (UniProt Q9H347) -0.063
UCHL3 (UniProt P15374) 0.013
VBP1 (UniProt P61758) 0.008
UPF1 (UniProt Q92900) -0.059

compound: CCn1cc(-c2ccnc3[nH]c(-c4cccc(CN(C)C)c4)cc23)c(-c2ccc(NC(=O)N(C)C)cc2)n1; assay: as above
Summary of the method: as §1

log2 fold change, inactive:
UMPS (UniProt P11172) 0.005
USP9X (UniProt Q93008) -0.056
UBXN7 (UniProt O94888) -0.067
UBQLN1 (UniProt Q9UMX0) -0.008
UGT8 (UniProt Q16880) -0.092
VAMP2 (UniProt P63027) -0.019
VCP (UniProt P55072) 0.027
USP19 isoform 6 (UniProt O94966) -0.042
UTP15 (UniProt Q8TED0) 0.195
UBL4A (UniProt P11441) 0.053
UBE3C (UniProt Q15386) -0.037
VAMP4 (UniProt O75379) 0.033
UQCC1 (UniProt Q9NVA1) -0.038
UCKL1 (UniProt Q9NWZ5) -0.021
UQCRB (UniProt P14927) 0.012
VARS (UniProt P26640) -0.007
UBL5 (UniProt Q9BZL1) -0.052
UPRT (UniProt Q96BW1) 0.089
UPF3B (UniProt Q9BZI7) 0.271
VAMP7 (UniProt P51809) -0.026
UVRAG (UniProt Q9P2Y5) -0.013
UFSP2 (UniProt Q9NUQ7) -0.055
UQCRQ (UniProt O14949) -0.005
USP15 (UniProt Q9Y4E8) -0.056
UBQLN2 (UniProt Q9UHD9) -0.038
UGDH (UniProt O60701) 0.031
UQCRC2 (UniProt P22695) -0.038
UNC93B1 (UniProt Q9H1C4) -0.167
USP7 (UniProt Q93009) -0.164
UBQLN3 (UniProt Q9H347) 0.109
UCHL3 (UniProt P15374) -0.094
VBP1 (UniProt P61758) 0.014
UPF1 (UniProt Q92900) -0.011
UBLCP1 (UniProt Q8WVY7) -0.072
UXT isoform 2 (UniProt Q9UBK9) -0.248

compound: CN(C)CC(=O)Nc1ccc2[nH]c(=O)c3ccccc3c2c1; assay: as above
Summary of the method: as §1

log2 fold change, inactive:
UMPS (UniProt P11172) -0.023
USP9X (UniProt Q93008) 0.01
UBXN7 (UniProt O94888) -0.017
USP6NL isoform 2 (UniProt Q92738) 0.126
UBQLN1 (UniProt Q9UMX0) -0.048
USP22 (UniProt Q9UPT9) 0.099
UGT8 (UniProt Q16880) -0.109
VAMP2 (UniProt P63027) -0.044
UXS1 isoform 2 (UniProt Q8NBZ7) -0.021
VCP (UniProt P55072) -0.007
USP19 isoform 6 (UniProt O94966) 0.043
UTP15 (UniProt Q8TED0) -0.164
UBL4A (UniProt P11441) 0.039
UBE3C (UniProt Q15386) -0.014
VAMP4 (UniProt O75379) -0.137
UQCC1 (UniProt Q9NVA1) -0.031
UCKL1 (UniProt Q9NWZ5) -0.016
UQCRB (UniProt P14927) -0.009
VARS (UniProt P26640) 0.031
UBL5 (UniProt Q9BZL1) 0.007
USP20 (UniProt Q9Y2K6) 0.087
USP30 (UniProt Q70CQ3) -0.145
UPRT (UniProt Q96BW1) -0.053
UPF3B (UniProt Q9BZI7) -0.1
VAMP7 (UniProt P51809) 0.014
UVRAG (UniProt Q9P2Y5) 0.016
UFSP2 (UniProt Q9NUQ7) 0.027
UQCRQ (UniProt O14949) -0.053
USP15 (UniProt Q9Y4E8) 0.031
UBQLN2 (UniProt Q9UHD9) 0.001
UGDH (UniProt O60701) 0.05
UQCRC2 (UniProt P22695) 0.004
USP7 (UniProt Q93009) 0.097
UBQLN3 (UniProt Q9H347) -0.096
UCHL3 (UniProt P15374) 0.012
VBP1 (UniProt P61758) -0.019
UPF1 (UniProt Q92900) 0.006
UBLCP1 (UniProt Q8WVY7) 0.039
UXT isoform 2 (UniProt Q9UBK9) 0.015
